According to US7060444B1, “Zone 3 necrosis associated markers and method of use thereof” (CuraGen Corporation, priority 2002, dated 2006):
At least one structure is not confirmed: it was looked up by name or label, or the drawing left a doubt.

Test system: rat livers
Assay: Induction of Zone 3 Necrosis in vivo, liver pathology annotation
Details: sampled 1, 3, 7, 14 d

In the case of `CC(Cl)CCl` (stereo not drawn) [Dichloropropane], the “Zone 3 Necrosis in vivo: Pathology Present” value (High 1000 mg/kg/d) is reported as 1, 3 d.

With `CCC(=O)O[C@H]1[C@H](O[C@@H]2[C@@H](C)[C@H](O[C@H]3C[C@@](C)(OC)[C@@H](O)[C@H](C)O3)[C@@H](C)C(=O)O[C@H](CC)[C@@](C)(O)[C@H](O)[C@@H](C)C(=O)[C@H](C)C[C@@]2(C)O)O[C@H](C)C[C@@H]1N(C)C.CCCCCCCCCCCCOS(=O)(=O)O` [Erythromycin Estolate (EE), Erythromycin Estolate] the “Zone 3 Necrosis in vivo: Pathology Absent” value (Low 80 mg/kg/d) was 1, 3, 7, 14 d.

For `O=NN(CCO)CCO` [Nitrosodiethanolamine], the “Zone 3 Necrosis in vivo: Pathology Absent” value (Low 20 mg/kg/d) was 1, 3, 7, 14 d.
